US20050136053A1 (DYAX, published 2005)
Changes are numbered by the printed parent chain. Results are given in words; binding and its absence hold for the method and conditions named. Some binding calls cover weakened binding; strength is not graded here.

The chains behind the UniProt entries cited, without tags or fusion partners. Where a name states a change or a piece, a line headed by the entry shows the natural chain unless it says otherwise.
UniProt P35590: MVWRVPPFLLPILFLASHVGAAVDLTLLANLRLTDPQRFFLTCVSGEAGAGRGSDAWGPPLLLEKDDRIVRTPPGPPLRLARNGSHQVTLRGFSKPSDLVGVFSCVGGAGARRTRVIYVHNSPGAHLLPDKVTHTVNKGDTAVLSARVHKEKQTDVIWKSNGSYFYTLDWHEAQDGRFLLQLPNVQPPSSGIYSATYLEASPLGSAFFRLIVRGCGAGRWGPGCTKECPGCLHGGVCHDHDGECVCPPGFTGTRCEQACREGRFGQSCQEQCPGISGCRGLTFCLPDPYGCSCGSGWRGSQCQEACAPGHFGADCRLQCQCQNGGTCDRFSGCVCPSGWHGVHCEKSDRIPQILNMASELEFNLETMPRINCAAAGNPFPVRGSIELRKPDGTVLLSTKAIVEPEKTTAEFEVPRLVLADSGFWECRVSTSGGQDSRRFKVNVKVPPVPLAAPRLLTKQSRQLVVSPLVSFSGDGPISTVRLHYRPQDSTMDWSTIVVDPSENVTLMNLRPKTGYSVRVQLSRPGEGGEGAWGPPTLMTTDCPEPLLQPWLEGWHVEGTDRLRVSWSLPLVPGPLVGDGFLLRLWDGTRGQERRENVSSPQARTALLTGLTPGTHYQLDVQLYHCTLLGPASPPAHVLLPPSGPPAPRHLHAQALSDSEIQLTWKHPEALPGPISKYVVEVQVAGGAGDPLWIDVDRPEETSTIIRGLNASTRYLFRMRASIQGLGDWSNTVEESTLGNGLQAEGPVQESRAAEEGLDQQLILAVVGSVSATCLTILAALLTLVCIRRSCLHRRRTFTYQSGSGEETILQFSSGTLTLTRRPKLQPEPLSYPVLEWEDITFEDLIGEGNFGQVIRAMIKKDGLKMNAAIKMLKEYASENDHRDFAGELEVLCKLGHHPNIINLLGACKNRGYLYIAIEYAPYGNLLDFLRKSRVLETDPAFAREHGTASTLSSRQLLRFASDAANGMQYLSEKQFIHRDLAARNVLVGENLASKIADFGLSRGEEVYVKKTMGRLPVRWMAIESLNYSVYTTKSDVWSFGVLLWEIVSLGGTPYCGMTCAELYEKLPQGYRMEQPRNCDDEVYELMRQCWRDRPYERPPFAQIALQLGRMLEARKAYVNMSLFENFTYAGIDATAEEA

B1: anti-Tie1 antibody s-A2, IgG (antibody, V domains shown)
VH: EVQLLESGGGLVQPGGSLRLSCAASGFTFSRYTMMWVRQAPGKGLEWVSGIYPSGGVTLYADSVKGRFTISRDNSKNTLYLQMNSLRAEDTAVYYCARVNYYDSSGYGPIAPGLDYWGQGTLVTVSS
VL: DIQMTQSPGTLSLSPGERATLSCRASRSVIISYVAWYQQKPGQAPRLLIYGASTRATGIPDRFSGSGSGTDFTLTISRLEPEDFAVYFCQLYGRSPRIIFGQGTRLEIK
B2: anti-Tie1 antibody s-A10, IgG (antibody, V domains shown)
VH: EVQLLESGGGLVQPGGSLRLSCAASGFTFSNYVMVWVRQAPGKGLEWVSGIYPSGGHTKYADSVKGRFTISRDNSKNTLYLQMNSLRAEDTAVYYCARVNYYDSSGYGPIAPGLDYWGQGTLV
VL: DIQMTQSPGTLSLSPGERATLFCRASQRVTSNSLAWYQQRPGQAPRLLIYDASTRATGIPDRFSGSGSGRDFTLTISRLEPEDFAVYYCQRYGSSVLYSFGQGTKLEIT
B3: anti-Tie1 antibody s-B9, IgG (antibody, V domains shown)
VH: B1 VH with R31S, T33V, V57W, L59Y, A61T
VL: DIQMTQSPSSLSASVGDRVTITCRASQSVSSHLSWFQQRPGKAPNLLIYHASSLQSGVPSRFSGSGSGTDFTLTISSLQPEDFATYYCQQSYATSSITFGQGTRLDIK
B4: anti-Tie1 antibody s-C2, IgG (antibody, V domains shown)
VH: B1 VH with T33K, M35K, G50V, V57G, L59G
VL: AQSVLTQPDSVSGSPGESITISCTGSSRDVGGYNYVSWYQQHPGKAPKLLLYDVTYRPSGISGRFSGSKSGDTASLTISGLRTEDEADYYCSSSIGTRTYVFGSGTKVTVLR
B5: anti-Tie1 antibody s-C7, IgG (antibody, V domains shown)
VH: EVQLLESGGGLVQPGGSLRLSCAASGFTFSRYVMYWVRQAPGKGLEWVSVIYPSGGATYYADSVKGRFTISRDNSKNTLYLQMNSLRAEDTAVYYCARRGSSGAFDYWGQGTLVTVSS
VL: AQSVLTQPASVSGSPGQSITISCTGTSSDIGRYNYASWYQQRPGKSPKLLIYEVSDRPSGVSNRFSGSKSGNTASLIISGLQAEDEADYYCSSYSSTNSLQVVFGGGTKLSVLG
B6: anti-Tie1 antibody s-C10, IgG (antibody, V domains shown)
VH: B1 VH with R31A, T33G, M35S, G50V, V57W, L59Y
VL: DIQMTQSPGTLSLSPGERATLSCRASQSVSSSYLAWYQQKPGQAPRLLIYGASSRATGIPDRFSGSGSGTDFTLTISRLEPEDFAVYYCQQYNNWPRTFGQGTKVEIK
B7: anti-Tie1 antibody s-H4, IgG (antibody, V domains shown)
VH: EVQLLESGGGLVQPGGSLRLSCAASGFTFSSYKMGWVRQAPGKGLEWVSSIYPSGGWTHYADSVKGRFTISRDNSKNTLYLQMNSLRAEDTAVYYCARVLLHYFDYWGQGTLV
VL: AQSVLTQPASVSGSPGQSITISCTGTSSDVGGYKYVSWYQQHPGKAPKLIISDVNNRPSGVSDRFSGSKSGNTASLTISGLQAEDDGDYYCSSYASSSYTSSTTWVFGGGTKLTVLG
B8: anti-Tie1 antibody p-F3, IgG (antibody, V domains shown)
VH: EVQLLESGGGLVQPGGSLRLSCAASGFTFSMYGMGWVRQAPGKGLEWVSVISPSGGQTAYADSVKGRFTISRDNSKNTLYLQMNSLRAEDTAVYYCARVALLLGHAFDIWGQGTMVTVSS
VL: DIQMTQSPSTLSASLGDRVTITCRASESISRWLAWYQQKPGKAPKLLMYEASTLESGVPSRFTGTGSGTEFTLTISSLQPDDFATYYCQQRSNWPLTFGGG

target: endogenous human Tie1 (primary human endothelial cells, HUVEC, human tissue sections, SW480 cells) (human) (UniProt P35590); assay: Western blot, HDMEC

binding, binds:
B1, B2, B3, B4, B5, B6, B7

target: V5-tagged full length human Tie1 expressed in COS1 cells (pcDNA3-Tie1-V5) (human) (UniProt P35590); assay: immunofluorescence, Tie1-V5-transfected COS1 cells

binding, binds:
B1, B8, B2, B3, B4, B5, B6, B7

target: endogenous human Tie1 (primary human endothelial cells, HUVEC, human tissue sections, SW480 cells) (human) (UniProt P35590); assay: immunofluorescence, HDMEC

binding, binds:
B1, B2, B3, B4, B5, B6, B7

target: V5-tagged full length human Tie1 expressed in COS1 cells (pcDNA3-Tie1-V5) (human) (UniProt P35590); assay: immunoprecipitation, Tie1-V5-transfected COS1 cells

binding, binds:
B1, B2, B3, B4, B5, B6, B7

target: endogenous human Tie1 (primary human endothelial cells, HUVEC, human tissue sections, SW480 cells) (human) (UniProt P35590); assay: Western blot, HDMEC; Western blot, HDMEC

binding, binds:
B8

target: endogenous human Tie1 (primary human endothelial cells, HUVEC, human tissue sections, SW480 cells) (human) (UniProt P35590); assay: Western blot, immunoprecipitation and immunofluorescence

binding, binds:
B1, B2, B3, B4, B5, B6, B7

target: V5-tagged full length human Tie1 expressed in COS1 cells (pcDNA3-Tie1-V5) (human) (UniProt P35590); assay: as above

binding, binds:
B1, B8, B2, B3, B4, B5, B6, B7

target: endogenous human Tie1 (primary human endothelial cells, HUVEC, human tissue sections, SW480 cells) (human) (UniProt P35590); assay: immunoprecipitation, HDMEC

binding, binds:
B1, B2, B3, B4, B5, B6, B7

target: V5-tagged full length human Tie1 expressed in COS1 cells (pcDNA3-Tie1-V5) (human) (UniProt P35590); assay: Western blot, Tie1-V5-transfected COS1 cells

binding, binds:
B1, B8, B2, B3, B4, B5, B6, B7

target: endogenous human Tie1 (primary human endothelial cells, HUVEC, human tissue sections, SW480 cells) (human) (UniProt P35590); assay: immunofluorescence, HDMEC; immunofluorescence, HDMEC

binding, binds:
B8
